# Where two headings read alike, the source gives them in different places. At least one read-out could not be matched to a standard name with certainty.
# How the values were obtained:
# [1] = test system: mitochondrial membrane potential; format: cell-based, mouse
# reactive oxygen species = format: cell-based, mouse
# OXPHOS gene expression = format: cell-based, mouse
# nuOXPHOS transcripts = format: cell-based, mouse
# mtOXPHOS transcripts = format: cell-based, mouse
# [2] = test system: cellular dehydrogenase activity
# [3] = composite Z-score vs mock-treated (DMSO) wells, concentration of each compound in μM
# [4] = Table 4, C2C12 myotubes, 48 h, composite Z-score
# [5] = normalized score (composite Z-score vs DMSO mock-treated wells), compound concentration (μM)
Compound,"ΔΨm [1, 3]",ROS (reactive oxygen species; [3]),GE-HTS (OXPHOS gene expression; [3]),nucOX (nuOXPHOS transcripts; [3]),mitoOX (mtOXPHOS transcripts; [3]),Viability (C2C12 myotubes; [3]),"MTT [2, 3]",further results
COc1c(O)cc2c(c1O)[C@@H]1O[C@H](CO)[C@@H](O)[C@H](O)[C@H]1OC2=O [bergenin],−0.637,0.880,−0.379,−0.421,−0.232,0.555,−1.415,
COc1cc2c3cc1Oc1cc(ccc1O)C[C@@H]1c4c(cc(OC)c(O)c4Oc4ccc(cc4)C[C@@H]3N(C)CC2)CC[N+]1(C)C [tubocurarine],0.044,0.229,−0.267,−0.426,0.104,−1.217,0.659,
"COC(=O)Nc1nc2ccc([S+]([O-])c3ccccc3)cc2[nH]1 (stereo not shown) [oxfendazole, reference compound]",−0.446,0.692,−0.801,−0.626,−0.969,0.107,−2.568,"ΔΨm ([1]; Table 4, C2C12 myotubes, 48 h, JC-1, composite Z-score): −0.446; ROS (reactive oxygen species; [4]): 0.692; Viability (C2C12 myotubes; [4]): 0.107; MTT [2, 4]: −2.568"
Clc1ccc(C(Cn2ccnc2)OCc2c(Cl)cccc2Cl)c(Cl)c1 (stereo not shown) [isoconazole],,,,,,,,"ΔΨm [1, 5]: −0.823; ROS (reactive oxygen species; [5]): 1.342; GE-HTS (OXPHOS gene expression; [5]): −1.056; nucOX (nuOXPHOS transcripts; [5]): −1.233; mitoOX (mtOXPHOS transcripts; [5]): −0.525; Viability (C2C12 myotubes; [5]): −0.442; MTT [2, 5]: −2.216"
C[N+](C)(C)CCCCCC[N+](C)(C)C [hexamethonium bromide],,,,,,,,ΔΨm [1]: −1.259; ROS (reactive oxygen species): 3.128; GE-HTS (OXPHOS gene expression): 0.227; nucOX (nuOXPHOS transcripts): 0.294; mitoOX (mtOXPHOS transcripts): 0.025; Viability (C2C12 myotubes): −0.994; MTT [2]: −1.279
CC(CCc1ccc(O)cc1)NCCc1ccc(O)c(O)c1 (stereo not shown) [dobutamine],−1.373,−0.132,−0.285,−0.059,−0.683,−0.245,−1.063,
O=C1C(O)=C([C@H]2CC[C@H](c3ccc(Cl)cc3)CC2)C(=O)c2ccccc21 [atovaquone],0.488,0.773,−0.505,−0.281,−0.870,−0.567,−2.368,
Cc1ccc(O)c([C@H](CCN(C(C)C)C(C)C)c2ccccc2)c1 [tolterodine],,,,,,,,ΔΨm [1]: −1.032; ROS (reactive oxygen species): 0.472; GE-HTS (OXPHOS gene expression): 0.049; nucOX (nuOXPHOS transcripts): 0.113; mitoOX (mtOXPHOS transcripts): −0.050; Viability (C2C12 myotubes): −0.490; MTT [2]: −0.729
N[C@@H](Cc1c[nH]cn1)C(=O)Nc1ccc2ccccc2c1 [N-histidyl-2-aminonaphthalene],−0.618,0.353,−0.595,−0.469,−0.739,−0.137,−0.147,
"COc1ccc(-c2cc(=O)c3c(OC)cc(O)cc3o2)cc1 [5,4′-dimethoxy-7-hydroxyflavone]",−0.043,1.747,0.083,−0.073,0.369,−0.171,−0.913,
CC(C)=CCC/C(C)=C/COC(=O)C=Cc1ccccc1 [geranyl cinnamate],−0.515,1.250,−0.697,−0.668,−0.652,−0.653,−1.080,
Nc1nc2nc[nH]c2c(=S)[nH]1 [thioguanine],,,,,,,,ΔΨm (composite Z-score vs DMSO) [1]: −0.835; ROS (composite Z-score vs DMSO) (reactive oxygen species): −0.712; GE-HTS (composite Z-score vs DMSO) (OXPHOS gene expression): 0.683; nucOX (composite Z-score vs DMSO) (nuOXPHOS transcripts): 0.967; mitoOX (composite Z-score vs DMSO) (mtOXPHOS transcripts): −0.044; Viability (composite Z-score vs DMSO) (C2C12 myotubes): −0.940; MTT (composite Z-score vs DMSO) [2]: −2.346
COc1ccc(-c2cc(C(F)F)nn2-c2ccc(S(N)(=O)=O)cc2)cc1F [deracoxib],−0.313,0.081,0.250,0.179,0.386,1.524,−0.588,
CC(C)(O/N=C(\C(=O)N[C@@H]1C(=O)N2C(C(=O)[O-])=C(C[n+]3ccccc3)CS[C@H]12)c1csc(N)n1)C(=O)O [ceftazidime],−0.673,−0.209,−0.379,−0.056,−0.965,0.992,−0.654,
OCCOCCN1CCN(C(c2ccccc2)c2ccc(Cl)cc2)CC1 (stereo not shown) [hydroxyzine],,,,,,,,"ΔΨm [1, 5]: 0.143; ROS (reactive oxygen species; [5]): 0.020; GE-HTS (OXPHOS gene expression; [5]): −1.077; nucOX (nuOXPHOS transcripts; [5]): −0.878; mitoOX (mtOXPHOS transcripts; [5]): −1.323; Viability (C2C12 myotubes; [5]): 0.793; MTT [2, 5]: −1.043"
CC1(C)S[C@@H]2[C@H](NC(=O)C3(N)CCCCC3)C(=O)N2[C@H]1C(=O)O [cyclacillin],,,,,,,,ΔΨm (composite Z-score) [1]: −0.107; ROS (composite Z-score) (reactive oxygen species): −0.360; GE-HTS (composite Z-score) (OXPHOS gene expression): 0.039; nucOX (composite Z-score) (nuOXPHOS transcripts): −0.069; mitoOX (composite Z-score) (mtOXPHOS transcripts): 0.250; Viability (composite Z-score) (C2C12 myotubes): −0.221; MTT (composite Z-score) [2]: 1.769
Cc1c(C(N)=O)cc([N+](=O)[O-])cc1[N+](=O)[O-] [dinitolmide],,,,,,,,ΔΨm (composite Z-score vs DMSO) [1]: −1.043; ROS (composite Z-score vs DMSO) (reactive oxygen species): 0.711; GE-HTS (composite Z-score vs DMSO) (OXPHOS gene expression): 0.063; nucOX (composite Z-score vs DMSO) (nuOXPHOS transcripts): 0.097; mitoOX (composite Z-score vs DMSO) (mtOXPHOS transcripts): −0.028; Viability (composite Z-score vs DMSO) (C2C12 myotubes): −1.655; MTT (composite Z-score vs DMSO) [2]: −0.993
CCCSP(=O)(OCC)SCCC [ethoprop],,,,,,,,ΔΨm [1]: −0.500; ROS (reactive oxygen species): 0.988; GE-HTS (OXPHOS gene expression): −0.222; nucOX (nuOXPHOS transcripts): 0.003; mitoOX (mtOXPHOS transcripts): −0.595; Viability (C2C12 myotubes): 0.070; MTT [2]: −2.177
Cc1ccc(S(=O)(=O)NC(=O)NN2CC3CCCC3C2)cc1 (stereo not shown) [gliclazide],−0.608,0.915,−0.779,−0.812,−0.565,−0.452,−0.090,
C=C[C@H]1CN2CC[C@H]1C[C@H]2[C@H](O)c1ccnc2ccccc12 [cinchonidine],−1.067,0.411,−0.385,−0.183,−0.717,−1.586,−1.384,
COc1cc(C2Oc3cc([C@H]4Oc5cc(O)cc(O)c5C(=O)[C@@H]4O)ccc3OC2CO)ccc1O (stereo partly shown) [silybin],,,,,,,,ΔΨm [1]: −2.599; ROS (reactive oxygen species): 0.594; GE-HTS (OXPHOS gene expression): −0.560; nucOX (nuOXPHOS transcripts): −0.811; mitoOX (mtOXPHOS transcripts): 0.093; Viability (C2C12 myotubes): 0.319; MTT [2]: −1.445
Clc1ccc(CO/N=C(\Cn2ccnc2)c2ccc(Cl)cc2Cl)c(Cl)c1 [oxiconazole],,,,,,,,ΔΨm [1]: 1.299; ROS (reactive oxygen species): −1.503; GE-HTS (OXPHOS gene expression): −1.477; nucOX (nuOXPHOS transcripts): −1.697; mitoOX (mtOXPHOS transcripts): −0.747; Viability (C2C12 myotubes): −3.228; MTT [2]: −1.535
CCOc1ccc(NC(C)=O)cc1 [phenacetin],,,,,,,,ΔΨm [1]: −1.039; ROS (reactive oxygen species): 1.110; GE-HTS (OXPHOS gene expression): −0.311; nucOX (nuOXPHOS transcripts): −0.148; mitoOX (mtOXPHOS transcripts): −0.584; Viability (C2C12 myotubes): 0.588; MTT [2]: −1.856
COC(=O)C1=CO[C@@H](C)[C@@H]2CN3CCc4c([nH]c5ccccc45)[C@@H]3C[C@H]12 [tetrahydroalstonine],−1.309,1.058,−0.219,−0.294,−0.016,0.055,−1.505,
Cn1c(=O)c2c(ncn2C)n(C)c1=O [caffeine],,,,,,,,ΔΨm (composite Z-score vs DMSO) [1]: −0.718; ROS (composite Z-score vs DMSO) (reactive oxygen species): 0.914; GE-HTS (composite Z-score vs DMSO) (OXPHOS gene expression): −0.120; nucOX (composite Z-score vs DMSO) (nuOXPHOS transcripts): 0.084; mitoOX (composite Z-score vs DMSO) (mtOXPHOS transcripts): −0.451; Viability (composite Z-score vs DMSO) (C2C12 myotubes): −0.404; MTT (composite Z-score vs DMSO) [2]: −0.358
CN1CCCC(n2nc(Cc3ccc(Cl)cc3)c3ccccc3c2=O)CC1 (stereo not shown) [azelastine],1.404,0.268,−0.315,−0.467,0.015,0.001,0.174,
COCC(=O)Nc1c(I)c(C(=O)NCC(O)CO)c(I)c(C(=O)N(C)CC(O)CO)c1I (stereo not shown) [iopromide],0.132,0.278,0.087,0.130,−0.020,−0.774,−0.350,
O=C(O)c1cn(-c2ccc(F)cc2)c2cc(N3CCNCC3)c(F)cc2c1=O [sarafloxacin],−0.519,0.763,0.312,0.416,−0.017,−0.337,−2.298,
CC[N+]1(C)CCCC(OC(=O)C(O)(c2ccccc2)c2ccccc2)C1 (stereo not shown) [pipenzolate],,,,,,,,ΔΨm [1]: −0.281; ROS (reactive oxygen species): 0.627; GE-HTS (OXPHOS gene expression): −0.473; nucOX (nuOXPHOS transcripts): −0.553; mitoOX (mtOXPHOS transcripts): −0.217; Viability (C2C12 myotubes): −1.074; MTT [2]: −0.654
CCN1C[C@]2(COC)[C@H](O)C[C@H](OC)[C@@]34[C@@H]5C[C@@]6(O)[C@H](OC(=O)c7ccccc7)[C@@H]5[C@@](OC(C)=O)([C@@H]([C@H](OC)[C@H]23)[C@@H]14)[C@@H](O)[C@@H]6OC [aconitine],−0.393,0.623,0.389,0.414,0.249,−0.184,−0.538,
